According to the supplement of paper PMC11237882:
Some of the results follow. Values are worked out from sequencing counts and are noisy.

T1: Homer1 EVH1 domain
T1 chain: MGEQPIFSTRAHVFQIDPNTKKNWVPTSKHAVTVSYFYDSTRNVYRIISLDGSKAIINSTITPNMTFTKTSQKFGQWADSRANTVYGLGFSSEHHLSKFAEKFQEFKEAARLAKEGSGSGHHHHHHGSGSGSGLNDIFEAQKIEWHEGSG


Target: T1, Homer1 EVH1 domain
Test: enrichment score (AUC of log2 frequency ratio across FACS sorting rounds) (log2 AUC); higher = stronger enrichment for Homer1 EVH1 binding

Binder | enrichment score
VSATTMLTLWALAVMLAVEEALGQLELADRPSLIPT | 3.65
WVHVLVPMGFVIGCYLDRKSDERLTAFRNKSMLFKR | 3.24
IFPANPANISVALRALGSSYTIPEAWLLLANVVVVL | -0.707
MTEAWVGSFLIIILFLLQTETTLGLSSYQQKSISLY | 2.16
LPAATILQDRHLLRAGHVGPARALAAWKRSRCSPRG | -1.23
SITPIMYPASFWFEVPSSAYVFLIVINLFIGITATV | 3.05
SPKAAPRPTGARPARLTRYARLPLGALSLTRRLGPP | 0.109
KDVFFFLFFLSVWLVAYGVTTQALLHPHDGRLEWIF | -0.132
NFFQNIGSITLFAVFGTAISAFVVGGGIYFLGQADV | 0.895
MTNKCLLQIALLLCFSTTALSMSYNLLGFLQRSSNF | 3.11
MNGMNHSVVSEFVFMGLTNSREIQLLLFVFSLLFYF | -1.83
YLFDNGGTVFFAIFMAIWATVFLEFWKRRRSILTYT | 2.27
AAAELGAELLGESIIFITACSCLMLEYWRHQLQQRR | 3.51
FTYMLIGEIFELMQFLFVVAFTTFLVSCVDYDILFD | 2.5
MESKALLVLTLAVWLQSLTASRGGVAAADQRRDFID | 0.181
HPPNERTHLVILGAILLCLGVALTFIFRLRKGRMMD | 2.21
YTTNPGYQAYVILISLISFFIPFLVILYSFMGILNT | 3.36
SLPYILILSVKLVMQHITGISLGIGLLTTFMYANKS | 1.31
LGNTWKQNLTELSGGQRSLVALSLILSMLLFKPAPI | 1.48
YQALEQGGMTFGWVCWMILFDSSLYFLCGWYLSNLI | -3.34
LGFLGLLLGIAGLRCTNIGGLELSRKAKLAATAGAH | -1.25
MKTLPVLVLSLTLLTVFSETSPILTEKQAKQLLRSR | 1.77

Binder | enrichment score
LRLGALVAPVVSAFSLAFCALPFMGFGKFVQYCPGT | 0.0996
LWVFMFVCALGTVGLFLPPLFQTHAAFEGPYAAQRD | 2.12
YYFGNWAFLGVFLIGLIVSCCKGKKSVIEGVDEDSD | 0.597
YRDTFIVTLGNAITSILAGFAIFSVLVYMSQELGVP | 3.55
MKEHIIYQKLYGLILMSSFIFLSDTLSLKGKKLDFF | 1.15
MAKCDACKRQGKLSESLKWRGEMKHFCNLLCILMFC | -1.66
HASLVRPHPSRDQKRGVYFALCLSLMVGSLLETIFI | 1.77
GSIMERASGKTENTWLLGFLIALPILIVTTAIVLAR | 3.56
QTRHEQLPSPSLLTMWTLKSSLVLLLCLTCSYAFMF | 2.91
KTLLLPVVMVITCFIFKKTVRDISYVLATNIYLRKQ | 0.482
CGEKMTLCISVLLALTVFLLLISKIVPPTSLDVPLV | -0.0182
TIKRFVVLISTLGTYNSLLIISWLPVLGFLQLPYLD | 1.46
LDTNQHRTHAMRLLDGLEVTAREKRLKVARAILYVA | 2.42
LKSLPVLLIIYFVSLLAPWLEFWKSGAHLPGNKENN | 1.66
ILQGFSCEWTIQIFLFSLFTTIYALTITGNGAIAFA | -3.36
FYLPVVIMTVLYIHISLASRSRVHKHRPEGPKEKKT | 2.4
MVAWRSAFLVCLAFSLATLVQRGSGDFDDFNLDDAV | 2.57
IAGIAIPAMIIGIPVYVGRKIHNRYEGKDVSKHKRN | 1.14
AKWVAIASIIIGLLIIGISCAVHFTRKGAGKSDIRG | 2.45
IAGAILLCIIFSLSNIIYFSAALYRIPKPELHKKET | 1.62
KVIPLIGEYLLFIMIFVTLSIIVTVFVINVHHRSSS | -0.356
AFLVIYLITIMGNLGLIAVIWKDPHLHIPMYLLLGN | 0.811
